# Strings that start with PEPTIDE1 are HELM notation: dots part the residues, brackets hold end groups and non-standard residues.
# Test: Fmoc solid-phase peptide synthesis; Rink Amide resin; HBTU/HOBt
# Conditions: whole synthesis, overall
substance,measurement,value
PEPTIDE1{P.P.G.[Hyp].P.G.[Nin].P.P.G.[Hyp].P.G.[Nin].P.P.G.[Hyp].P.G.[Nin].P.P.G.[Hyp].P.G.[Nin].P.P.G.[Hyp].P.G.[am]}$$$$V2.0,isolated yield,41%

# Source: US11370757B2 (priority 2017, dated 2022)
